The values below come from patent US20260184794A1, “ANTIBODIES AGAINST INTEGRIN ALPHA 11 BETA 1 AND USES THEREOF” (Momenta Pharmaceuticals, Inc., priority 2022, published 2026).

Sequences of proteins named here, by UniProt entry; tags and fusion partners are left off. A change or cut given only in a name is not applied to a line headed by its entry.
UniProt Q9UKX5: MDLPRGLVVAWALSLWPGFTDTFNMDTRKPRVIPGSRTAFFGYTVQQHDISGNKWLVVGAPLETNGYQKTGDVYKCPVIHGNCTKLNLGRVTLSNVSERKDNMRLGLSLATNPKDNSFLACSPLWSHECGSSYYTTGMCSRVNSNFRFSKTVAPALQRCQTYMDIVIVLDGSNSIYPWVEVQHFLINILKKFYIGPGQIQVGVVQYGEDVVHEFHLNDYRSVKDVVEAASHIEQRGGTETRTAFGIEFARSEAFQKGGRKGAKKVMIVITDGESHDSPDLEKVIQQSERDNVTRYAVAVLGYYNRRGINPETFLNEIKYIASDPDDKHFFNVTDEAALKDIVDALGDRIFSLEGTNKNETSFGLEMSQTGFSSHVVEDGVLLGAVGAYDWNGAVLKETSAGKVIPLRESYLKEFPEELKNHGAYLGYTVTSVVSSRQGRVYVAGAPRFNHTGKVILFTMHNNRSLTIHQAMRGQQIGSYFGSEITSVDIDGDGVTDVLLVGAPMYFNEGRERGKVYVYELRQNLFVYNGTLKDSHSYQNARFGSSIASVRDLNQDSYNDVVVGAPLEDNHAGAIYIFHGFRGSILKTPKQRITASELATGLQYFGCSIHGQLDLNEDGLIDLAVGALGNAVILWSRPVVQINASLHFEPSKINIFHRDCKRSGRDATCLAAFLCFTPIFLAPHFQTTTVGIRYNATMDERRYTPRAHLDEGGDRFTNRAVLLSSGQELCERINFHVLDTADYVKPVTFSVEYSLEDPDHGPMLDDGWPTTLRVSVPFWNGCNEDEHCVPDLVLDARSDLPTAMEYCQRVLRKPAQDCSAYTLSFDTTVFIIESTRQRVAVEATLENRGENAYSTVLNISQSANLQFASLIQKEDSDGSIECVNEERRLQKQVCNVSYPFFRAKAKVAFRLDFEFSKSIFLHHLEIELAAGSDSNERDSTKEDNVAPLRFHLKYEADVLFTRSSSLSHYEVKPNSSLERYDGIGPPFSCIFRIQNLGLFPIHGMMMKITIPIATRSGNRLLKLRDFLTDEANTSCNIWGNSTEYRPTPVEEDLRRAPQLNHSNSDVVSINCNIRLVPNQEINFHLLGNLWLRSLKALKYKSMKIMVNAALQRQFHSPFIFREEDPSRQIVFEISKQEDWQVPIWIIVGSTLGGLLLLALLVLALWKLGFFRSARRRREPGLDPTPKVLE
UniProt P05556: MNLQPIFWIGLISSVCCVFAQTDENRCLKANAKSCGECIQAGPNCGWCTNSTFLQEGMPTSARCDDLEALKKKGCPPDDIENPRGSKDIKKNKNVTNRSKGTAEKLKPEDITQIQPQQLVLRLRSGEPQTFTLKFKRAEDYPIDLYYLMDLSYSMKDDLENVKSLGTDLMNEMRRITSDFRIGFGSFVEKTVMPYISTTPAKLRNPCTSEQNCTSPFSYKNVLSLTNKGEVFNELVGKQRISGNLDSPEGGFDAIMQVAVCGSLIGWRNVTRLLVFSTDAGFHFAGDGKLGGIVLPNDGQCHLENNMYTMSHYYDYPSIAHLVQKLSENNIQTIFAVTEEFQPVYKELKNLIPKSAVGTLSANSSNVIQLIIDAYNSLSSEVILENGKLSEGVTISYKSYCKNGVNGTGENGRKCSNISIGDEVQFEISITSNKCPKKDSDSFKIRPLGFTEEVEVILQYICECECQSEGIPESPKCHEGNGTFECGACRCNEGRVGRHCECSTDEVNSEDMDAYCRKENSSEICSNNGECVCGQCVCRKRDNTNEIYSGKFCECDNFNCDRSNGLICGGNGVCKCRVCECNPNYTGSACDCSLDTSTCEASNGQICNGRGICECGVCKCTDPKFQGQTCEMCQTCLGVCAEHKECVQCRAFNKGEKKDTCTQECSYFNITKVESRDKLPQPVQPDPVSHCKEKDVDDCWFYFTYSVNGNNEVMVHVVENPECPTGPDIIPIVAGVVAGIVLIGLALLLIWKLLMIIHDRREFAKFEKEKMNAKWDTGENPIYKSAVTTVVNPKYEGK

Sequences and labels used below:
B1: 1994-01-C7 variant 60 (antibody, V domains shown)
VH: QVQLVQSGAEVKKPGASVKVSCKASGYTFTSYGISWVRQAPGQGLEWMGWISAYNSNTNYAQKLQGRVTMTTDTSTSTAYMELRSLRSDDTAAYYCARVTGITGTTIGPWGQGTMVTVSS
VL: DIQMTQSPSSLSASVGDRVTITCRASQSISSYLNWYQQKPGKAPKLLIYDASSLESGVPSRFSGSGSGTEFTLTISSLQPDDFAVYYCQQYNNWPQTFGQGTKVEIK
B2: 1994-01-C7 variant 54 (antibody, V domains shown)
VH: B1 VH with S56A
VL: B1 VL
B3: 1994-01-C7 variant 58 (antibody, V domains shown)
VH: B1 VH with S56A, T58V
VL: B1 VL

Changes are numbered by the printed parent chain. Results are given in words; binding and its absence hold for the method and conditions named. Some binding calls cover weakened binding; strength is not graded here.

The target in this test is α11β1 on human pulmonary myofibroblasts (human) (UniProt Q9UKX5+P05556). The test can be described thus: flow cytometry on human pulmonary myofibroblasts (title: Myofibroblast Binding); MFI against Log [µg/ml]. In general terms: In flow cytometry, cells or beads pass a laser one at a time.
Turning to B1, the binding result was “binds”.

Take B2: the binding result is listed as “binds”.

Consider B3, for which the binding entry was “binds”.
